Binding data for two molecules are collected here from publication PMC4678874.

The target of experiment [1] is T1, HDA6–10 tagged with cYFP (Arabidopsis) (UniProt Q9FML2).
T1 sequence: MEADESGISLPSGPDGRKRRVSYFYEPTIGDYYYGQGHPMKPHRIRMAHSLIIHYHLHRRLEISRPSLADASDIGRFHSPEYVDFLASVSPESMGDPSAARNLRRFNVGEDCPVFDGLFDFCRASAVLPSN
In words: split reporter; BiFC; MET1-nYFP with HDA6, hda6-9 or hda6-10 tagged with cYFP, Agro-infiltrated into leaves of N. benthamiana; confocal microscopy two days later.

Experiment [2] deals with T2, wild-type HDA6 tagged with cYFP (Arabidopsis) (UniProt Q9FML2).
T2 sequence: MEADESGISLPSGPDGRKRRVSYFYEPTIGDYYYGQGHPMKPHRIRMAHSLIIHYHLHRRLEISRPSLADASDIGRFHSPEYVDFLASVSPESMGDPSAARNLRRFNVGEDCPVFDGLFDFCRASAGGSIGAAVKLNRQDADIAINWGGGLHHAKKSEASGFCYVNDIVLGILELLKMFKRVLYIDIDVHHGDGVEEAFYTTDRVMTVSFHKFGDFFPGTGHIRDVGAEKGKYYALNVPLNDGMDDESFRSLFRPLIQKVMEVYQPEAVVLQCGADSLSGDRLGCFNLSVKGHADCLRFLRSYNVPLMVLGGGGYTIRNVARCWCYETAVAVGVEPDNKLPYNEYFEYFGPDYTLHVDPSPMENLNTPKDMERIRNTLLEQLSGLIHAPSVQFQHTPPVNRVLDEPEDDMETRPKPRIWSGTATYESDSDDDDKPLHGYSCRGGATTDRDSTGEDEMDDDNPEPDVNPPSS
Described as above.

For experiment [3], the target named is T3, mutated hda6–10 (1–131aa) (Arabidopsis) (UniProt Q9FML2).
T3 sequence: T1 sequence
In words: two-hybrid; Matchmaker Gold; HDA6 forms as baits in pGBKT7 (Y2HGold), MET1 (R2FB) as prey in pGADT7 (Y187), mating; lower stringent plates SD/-Trp/-Leu with X-alpha-gal.

Experiment [4] has as its target T3, mutated hda6–10 (1–131aa) (Arabidopsis). In words: two-hybrid; Matchmaker Gold; HDA6 forms as baits in pGBKT7 (Y2HGold), MET1 (R2FB) as prey in pGADT7 (Y187), mating; higher stringent plates SD/-Trp/-Leu/-Ade/-His with X-alpha-gal and Aureobasidin A.
Experiment [5] concerns the target T4, wild-type HDA6 (1–471aa) (Arabidopsis) (UniProt Q9FML2).
T4 sequence: T2 sequence
The experiment is described as above.

These are yes or no findings as the source states them, for the method shown. For some assays here: Binding seen in cells or lysates may run through a third protein. Some results given as binding are weak or reduced against the parent protein; the word gives no strength. For some assays here: Tags and fused reporters may be left off the sequences shown.

For “full-length MET1 tagged with nYFP (from UniProt P34881 1-1534)”, the binding entry in experiment [1] and in experiment [2] was “binds” each time.

B1: MET1 (R2FB, aa.735–869) (domain or fragment, UniProt P34881 735-869)
chain: EMVAVGGAVTLEVDDPDEMPAIYFVEYMFESTDHCKMLHGRFLQRGSMTVLGNAANERELFLTNECMTTQLKDIKGVASFEIRSRPWGHQYRKKNITADKLDWARALERKVKDLPTEYYCKSLYSPERGGFFSLP
As to B1, the binding entry in experiment [3], in experiment [4] and in experiment [5] was “binds” in each case.
